For at least one entry, the source does not settle the construct or the ends of the probe. At least one result comes from cells or an extract, where the contact may be indirect. A negative result means that nothing was seen under these conditions.

The chains behind the UniProt entries cited, without tags or fusion partners. Where a name states a change or a piece, a line headed by the entry shows the natural chain unless it says otherwise.
UniProt P08621, whole entry: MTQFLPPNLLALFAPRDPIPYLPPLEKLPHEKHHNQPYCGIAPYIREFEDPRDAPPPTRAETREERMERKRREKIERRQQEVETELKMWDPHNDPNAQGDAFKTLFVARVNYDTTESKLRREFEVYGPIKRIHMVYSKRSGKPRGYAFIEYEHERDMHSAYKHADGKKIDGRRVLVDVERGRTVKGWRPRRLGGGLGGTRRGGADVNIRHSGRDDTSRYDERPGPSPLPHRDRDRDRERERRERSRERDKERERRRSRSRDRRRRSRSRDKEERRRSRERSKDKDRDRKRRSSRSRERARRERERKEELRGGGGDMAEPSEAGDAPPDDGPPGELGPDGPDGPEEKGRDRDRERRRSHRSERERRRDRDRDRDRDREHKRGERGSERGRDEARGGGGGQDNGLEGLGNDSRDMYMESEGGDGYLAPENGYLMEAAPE
UniProt P09234, whole entry: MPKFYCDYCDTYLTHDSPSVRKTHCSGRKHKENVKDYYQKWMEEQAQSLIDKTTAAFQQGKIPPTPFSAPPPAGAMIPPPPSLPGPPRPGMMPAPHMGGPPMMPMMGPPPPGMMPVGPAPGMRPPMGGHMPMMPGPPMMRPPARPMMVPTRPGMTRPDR

The results in this text go back to article PMC10404622.

Data set [1] has as its target U1-70K (HeLa NE) (human (HeLa)) (UniProt P08621). Put plainly: pull-down. Particulars: protein in an extract, label: 3'-biotin, single-stranded DNA.
Data set [2] deals with U1C (HeLa NE) (human (HeLa)) (UniProt P09234). Kind of data set: pull-down. Particulars: protein in an extract, label: 3'-biotin, single-stranded DNA.

Consider CAGGTAAGTAT [oligo 2 (11 nt)], for which the binding result in data set [1] (indirect via U1 snRNA) and in data set [2] (indirect via U1 snRNA) was “binds” in each case.
With “GGTATCTCCCCTGCCAGGTAAGTAT [oligo 3 (25 nt)]”, the binding result in data set [1] (U1 snRNA still captured) and in data set [2] (U1 snRNA still captured) was “no binding” each time.
